Measured values: paper PMC7686738
These are yes or no findings as the source states them, for the method shown. Binding seen in cells or lysates may run through a third protein. Some entries that bind do so weakly or less than the wild type.

Amino acid sequences for entries named in this document (tags omitted).
UniProt P25106: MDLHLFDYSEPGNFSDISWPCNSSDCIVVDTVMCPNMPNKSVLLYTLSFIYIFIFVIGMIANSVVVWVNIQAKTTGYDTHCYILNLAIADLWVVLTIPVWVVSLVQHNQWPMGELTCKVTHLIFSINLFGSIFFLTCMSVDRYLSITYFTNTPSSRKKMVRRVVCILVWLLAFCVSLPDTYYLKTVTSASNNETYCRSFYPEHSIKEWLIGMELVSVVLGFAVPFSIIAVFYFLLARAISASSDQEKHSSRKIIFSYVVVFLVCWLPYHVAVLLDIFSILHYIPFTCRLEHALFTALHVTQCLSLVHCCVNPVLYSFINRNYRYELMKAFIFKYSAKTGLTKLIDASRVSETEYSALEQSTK
UniProt P62873: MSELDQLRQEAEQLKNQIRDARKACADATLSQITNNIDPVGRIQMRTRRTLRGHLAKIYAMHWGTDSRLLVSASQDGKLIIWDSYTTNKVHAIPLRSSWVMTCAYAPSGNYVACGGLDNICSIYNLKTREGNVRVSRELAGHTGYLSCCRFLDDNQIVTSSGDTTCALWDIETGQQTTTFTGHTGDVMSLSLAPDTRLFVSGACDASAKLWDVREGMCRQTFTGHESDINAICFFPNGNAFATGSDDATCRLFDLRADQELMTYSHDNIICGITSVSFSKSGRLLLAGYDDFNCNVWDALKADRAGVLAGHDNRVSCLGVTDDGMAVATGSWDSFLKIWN
UniProt P34947: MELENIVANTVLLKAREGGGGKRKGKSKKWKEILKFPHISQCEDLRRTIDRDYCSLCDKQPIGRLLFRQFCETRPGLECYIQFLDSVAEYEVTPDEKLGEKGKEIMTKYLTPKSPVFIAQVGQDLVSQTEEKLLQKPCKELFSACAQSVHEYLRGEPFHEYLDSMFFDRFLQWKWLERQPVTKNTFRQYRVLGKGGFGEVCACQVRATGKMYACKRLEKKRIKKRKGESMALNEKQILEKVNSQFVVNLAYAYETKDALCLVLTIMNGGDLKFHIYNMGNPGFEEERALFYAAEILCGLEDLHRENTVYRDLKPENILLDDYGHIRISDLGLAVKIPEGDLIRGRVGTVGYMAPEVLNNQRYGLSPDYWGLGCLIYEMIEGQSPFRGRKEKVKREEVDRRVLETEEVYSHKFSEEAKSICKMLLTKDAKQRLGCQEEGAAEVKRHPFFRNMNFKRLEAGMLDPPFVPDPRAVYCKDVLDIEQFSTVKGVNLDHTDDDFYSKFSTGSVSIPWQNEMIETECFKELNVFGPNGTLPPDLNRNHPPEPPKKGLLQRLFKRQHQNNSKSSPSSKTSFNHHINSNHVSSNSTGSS

How the values were obtained:
[1] = biological target: epitope-tagged CXCR7 (FLAG-CXCR7 as bait, HA-CXCR7 as prey) (UniProt P25106); assay: cross-linking + co-IP; HEK293 cells incubated with 2 mM BS3 in PBS for 30 min before lysis; immunoprecipitation with anti-FLAG beads (results: RIPA buffer for increased stringency; methods: lysis buffer); western blot with anti-HA
[2] = biological target: epitope-tagged CXCR7 (FLAG-CXCR7 as bait, HA-CXCR7 as prey) (UniProt P25106); assay: co-IP; HEK293 cells expressing epitope-tagged receptors; lysis buffer (150 mM NaCl, 50 mM Tris-HCl pH 7.5, 10 mM KCl, 1% Triton X-100); anti-FLAG antibody-conjugated beads, washed at least four times; western blot with anti-HA; no cross-linker
Gβ1-SmBiT [3] = biological target: Gβ1-SmBiT (UniProt P62873); assay: split reporter; NanoBiT in live HEK293 cells, three-gene combination (30 ng each): CXCR4 co-expressed with SmBiT-tagged Gβ1 and GRK2-LgBiT or GRK5-LgBiT; SDF-1α or vehicle
Gβ1-SmBiT [4] = biological target: Gβ1-SmBiT (UniProt P62873); assay: condition: only with CXCR7 as the co-expressed receptor; split reporter; NanoBiT in live HEK293 cells, three-gene combination (30 ng each): CXCR7 co-expressed with SmBiT-tagged Gβ1 and GRK2-LgBiT or GRK5-LgBiT; SDF-1α or vehicle

binding [1]	binding [2]	binding (Gβ1-SmBiT [3])	binding (Gβ1-SmBiT [4])	Substance
binds	binds			epitope-tagged CXCR7 (FLAG-CXCR7 as bait, HA-CXCR7 as prey) (from UniProt P25106 1-362) (receptor)
		binds	no binding	GRK5-LgBiT (from UniProt P34947 1-590) (enzyme)
